Data on 1 compound can be found in ChEMBL document CHEMBL4811251 (Eur J Med Chem, 2021).

By UniProt entry, the sequences of proteins in these tests, tags left out. Where a name states a change or a piece, a line headed by the entry shows the natural chain unless it says otherwise.
UniProt P10635, whole entry: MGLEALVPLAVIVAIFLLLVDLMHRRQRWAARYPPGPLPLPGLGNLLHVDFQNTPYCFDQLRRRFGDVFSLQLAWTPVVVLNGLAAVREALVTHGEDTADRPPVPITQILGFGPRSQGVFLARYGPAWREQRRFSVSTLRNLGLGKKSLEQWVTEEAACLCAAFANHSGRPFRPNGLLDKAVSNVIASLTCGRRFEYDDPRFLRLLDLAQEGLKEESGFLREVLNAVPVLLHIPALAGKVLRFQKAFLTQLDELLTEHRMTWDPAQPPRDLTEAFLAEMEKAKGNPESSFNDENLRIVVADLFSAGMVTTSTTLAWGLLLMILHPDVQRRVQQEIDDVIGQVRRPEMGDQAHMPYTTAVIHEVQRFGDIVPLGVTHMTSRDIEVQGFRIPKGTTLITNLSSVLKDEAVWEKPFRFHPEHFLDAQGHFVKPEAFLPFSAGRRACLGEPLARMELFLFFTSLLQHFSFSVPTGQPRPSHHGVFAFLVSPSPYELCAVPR
UniProt P11712, whole entry: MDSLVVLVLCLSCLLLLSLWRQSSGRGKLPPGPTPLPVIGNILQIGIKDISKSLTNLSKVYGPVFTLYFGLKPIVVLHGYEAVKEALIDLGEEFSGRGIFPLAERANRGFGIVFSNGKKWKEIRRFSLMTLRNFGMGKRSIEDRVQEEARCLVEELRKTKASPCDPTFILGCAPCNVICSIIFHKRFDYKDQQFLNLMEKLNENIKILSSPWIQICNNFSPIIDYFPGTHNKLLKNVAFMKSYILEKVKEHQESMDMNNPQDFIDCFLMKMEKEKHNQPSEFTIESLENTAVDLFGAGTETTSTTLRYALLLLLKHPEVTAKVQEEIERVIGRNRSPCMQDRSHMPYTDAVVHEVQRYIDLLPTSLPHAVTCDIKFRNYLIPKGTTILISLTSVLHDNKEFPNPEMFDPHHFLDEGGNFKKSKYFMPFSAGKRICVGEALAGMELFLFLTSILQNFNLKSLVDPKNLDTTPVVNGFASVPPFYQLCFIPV
UniProt P33261, whole entry: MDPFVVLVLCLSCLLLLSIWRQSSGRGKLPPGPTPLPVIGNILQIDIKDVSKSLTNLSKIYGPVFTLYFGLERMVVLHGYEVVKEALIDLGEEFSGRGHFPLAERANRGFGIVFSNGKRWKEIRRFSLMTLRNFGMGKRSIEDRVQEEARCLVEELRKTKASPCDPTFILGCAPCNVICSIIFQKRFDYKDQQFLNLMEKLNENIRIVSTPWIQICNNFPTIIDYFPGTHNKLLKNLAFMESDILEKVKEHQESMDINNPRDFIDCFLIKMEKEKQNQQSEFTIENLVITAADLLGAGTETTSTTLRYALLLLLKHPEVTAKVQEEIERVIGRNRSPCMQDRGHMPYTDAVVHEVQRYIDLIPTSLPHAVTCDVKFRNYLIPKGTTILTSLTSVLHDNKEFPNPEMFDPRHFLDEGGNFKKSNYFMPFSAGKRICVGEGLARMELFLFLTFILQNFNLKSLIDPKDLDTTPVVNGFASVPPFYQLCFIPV
UniProt P08684, whole entry: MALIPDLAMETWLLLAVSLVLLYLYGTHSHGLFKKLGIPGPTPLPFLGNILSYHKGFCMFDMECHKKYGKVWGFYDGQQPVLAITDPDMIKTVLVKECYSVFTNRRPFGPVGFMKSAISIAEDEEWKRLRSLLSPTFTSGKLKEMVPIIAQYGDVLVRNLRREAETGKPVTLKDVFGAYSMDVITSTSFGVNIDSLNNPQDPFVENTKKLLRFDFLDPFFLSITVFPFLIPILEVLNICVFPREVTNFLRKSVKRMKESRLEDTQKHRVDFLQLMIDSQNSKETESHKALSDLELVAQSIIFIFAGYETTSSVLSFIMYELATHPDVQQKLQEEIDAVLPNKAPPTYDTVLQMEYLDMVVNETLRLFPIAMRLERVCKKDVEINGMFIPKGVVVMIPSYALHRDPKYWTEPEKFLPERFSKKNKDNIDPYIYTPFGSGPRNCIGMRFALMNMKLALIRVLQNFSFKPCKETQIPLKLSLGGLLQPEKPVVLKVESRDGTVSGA
UniProt Q12809: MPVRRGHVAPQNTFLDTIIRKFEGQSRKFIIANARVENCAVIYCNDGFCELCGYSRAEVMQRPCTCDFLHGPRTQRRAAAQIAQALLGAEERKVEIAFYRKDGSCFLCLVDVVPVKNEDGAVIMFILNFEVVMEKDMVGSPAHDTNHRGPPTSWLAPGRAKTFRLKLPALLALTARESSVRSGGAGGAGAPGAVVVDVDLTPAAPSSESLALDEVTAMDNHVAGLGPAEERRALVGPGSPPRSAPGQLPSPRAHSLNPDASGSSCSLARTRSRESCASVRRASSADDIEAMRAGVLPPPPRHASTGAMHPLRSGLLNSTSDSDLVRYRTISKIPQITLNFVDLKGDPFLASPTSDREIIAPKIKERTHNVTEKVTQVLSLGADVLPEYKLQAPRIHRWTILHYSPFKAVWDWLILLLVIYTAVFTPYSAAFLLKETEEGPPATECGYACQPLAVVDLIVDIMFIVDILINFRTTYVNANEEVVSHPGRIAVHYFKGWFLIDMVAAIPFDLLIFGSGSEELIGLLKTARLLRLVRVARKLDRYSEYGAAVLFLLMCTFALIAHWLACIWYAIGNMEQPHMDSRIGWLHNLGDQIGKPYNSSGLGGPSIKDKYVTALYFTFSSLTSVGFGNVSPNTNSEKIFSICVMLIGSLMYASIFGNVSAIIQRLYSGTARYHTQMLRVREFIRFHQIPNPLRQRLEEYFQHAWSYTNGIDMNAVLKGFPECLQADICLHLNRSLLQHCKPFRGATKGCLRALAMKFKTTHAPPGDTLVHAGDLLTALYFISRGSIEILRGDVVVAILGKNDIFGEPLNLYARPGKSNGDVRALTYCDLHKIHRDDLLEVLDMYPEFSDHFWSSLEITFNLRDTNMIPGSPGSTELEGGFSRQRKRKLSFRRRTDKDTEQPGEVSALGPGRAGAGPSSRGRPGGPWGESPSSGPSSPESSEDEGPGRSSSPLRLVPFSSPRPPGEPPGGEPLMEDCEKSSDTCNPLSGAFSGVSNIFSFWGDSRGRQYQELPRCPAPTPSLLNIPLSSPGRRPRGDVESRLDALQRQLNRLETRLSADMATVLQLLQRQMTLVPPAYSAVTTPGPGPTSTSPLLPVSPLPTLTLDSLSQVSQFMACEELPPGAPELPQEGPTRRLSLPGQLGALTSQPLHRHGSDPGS

Converted amounts (≈) assume the structure as drawn.

Among the targets are Cytochrome P450 2D6 (Homo sapiens, UniProt P10635); Cytochrome P450 2C9 (Homo sapiens, UniProt P11712); Cytochrome P450 2C19 (Homo sapiens, UniProt P33261).
For another data set, the target named is Cytochrome P450 3A4 (Homo sapiens, UniProt P08684). The data set can be described thus: Inhibition of CYP3A4 in human liver microsomes using midazolam as substrate. (Liver microsomes are vesicles of endoplasmic reticulum, rich in cytochrome P450 enzymes.)
Data set [1] can be described thus: physchem. To be noted: octanol/water, pH 7.4.
Data set [2] addresses Voltage-gated inwardly rectifying potassium channel KCNH2 (Homo sapiens, UniProt Q12809). The data set can be described thus: Inhibition of human ERG expressed in CHO cells.
A short description of data set [3]: physchem. To be noted: buffer.

Broadly, the IC50 is the concentration that gives 50% inhibition. The low end stands for greater potency, the high end for weaker potency. One may read the logD as the decadic logarithm of the distribution of all forms, ionised or not, between an organic phase and buffer at a given pH. Low readings indicate lower lipophilicity, high ones higher lipophilicity. By kinetic solubility is commonly meant solubility judged after dilution from a stock solution rather than from solid. Consider `Nc1ncc(-c2cc3ccccc3o2)c(N2CCC3(CCNC3=O)CC2)c1Cl`, for which the IC50 (against Cytochrome P450 3A4; in data set [2]; at Cytochrome P450 2D6; at Cytochrome P450 2C9; on Cytochrome P450 2C19) was above 25 µM in each case. In addition, the log distribution coefficient (logD) in the data set “physchem [1]” worked out at 4.08. For the same compound, the kinetic solubility in “physchem [3]” came out at 3 µM (≈ 1.19 µg/mL).
